The values below come from PMC11263394.

These are yes or no findings as the source states them, for the method shown. In cells and extracts the contact can be indirect. Some results given as binding are weak or reduced against the parent protein; the word gives no strength.

The experiment deals with T1, SLC40A1, also known as Ferroportin (FPN) (human (endogenous in U87R and GSCm01R)) (UniProt Q9NP59).
T1 sequence: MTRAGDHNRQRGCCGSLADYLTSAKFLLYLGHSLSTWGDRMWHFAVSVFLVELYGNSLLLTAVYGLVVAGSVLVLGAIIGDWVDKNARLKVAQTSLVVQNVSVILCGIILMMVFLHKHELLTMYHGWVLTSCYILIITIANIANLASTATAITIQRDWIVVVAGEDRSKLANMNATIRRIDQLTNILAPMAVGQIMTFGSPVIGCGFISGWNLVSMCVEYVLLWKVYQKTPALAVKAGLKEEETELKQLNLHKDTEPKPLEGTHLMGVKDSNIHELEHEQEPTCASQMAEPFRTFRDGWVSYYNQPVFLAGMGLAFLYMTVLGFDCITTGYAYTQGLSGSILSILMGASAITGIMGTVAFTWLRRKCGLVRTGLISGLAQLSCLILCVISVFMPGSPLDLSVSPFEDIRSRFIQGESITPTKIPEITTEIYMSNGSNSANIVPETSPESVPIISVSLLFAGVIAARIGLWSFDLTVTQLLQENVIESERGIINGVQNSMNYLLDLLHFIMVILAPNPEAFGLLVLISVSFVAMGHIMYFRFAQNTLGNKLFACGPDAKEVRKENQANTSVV
The experiment can be described thus: co-IP; U87R and GSCm01R cells lysed in IP lysis buffer with protease and phosphatase inhibitors; lysates incubated with antibody-coupled magnetic beads overnight at 4 °C (Pierce Classic Magnetic IP/Co-IP Kit); western blotting. On the technique in general: In western blotting, separated proteins are transferred to a membrane and probed.

B1: E3 ubiquitin ligase LRSAM1 (Leucine-rich repeat and sterile alpha motif-containing 1) (enzyme, UniProt Q6UWE0 1-723)
chain: MPLFFRKRKPSEEARKRLEYQMCLAKEAGADDILDISKCELSEIPFGAFATCKVLQKKVLIVHTNHLTSLLPKSCSLLSLATIKVLDLHDNQLTALPDDLGQLTALQVLNVERNQLMQLPRSIGNLTQLQTLNVKDNKLKELPDTVGELRSLRTLNISGNEIQRLPQMLAHVRTLEMLSLDASAMVYPPREVCGAGTAAILQFLCKESGLEYYPPSQYLLPILEQDGIENSRDSPDGPTDRFSREELEWQNRFSDYEKRKEQKMLEKLEFERRLELGQREHTQLLQQSSSQKDEILQTVKEEQSRLEQGLSEHQRHLNAERQRLQEQLKQTEQNISSRIQKLLQDNQRQKKSSEILKSLENERIRMEQLMSITQEETESLRRRDVASAMQQMLTESCKNRLIQMAYESQRQNLVQQACSSMAEMDERFQQILSWQQMDQNKAISQILQESAMQKAAFEALQVKKDLMHRQIRSQIKLIETELLQLTQLELKRKSLDTESLQEMISEQRWALSSLLQQLLKEKQQREEELREILTELEAKSETRQENYWLIQYQRLLNQKPLSLKLQEEGMERQLVALLEELSAEHYLPIFAHHRLSLDLLSQMSPGDLAKVGVSEAGLQHEILRRVQELLDAARIQPELKPPMGEVVTPTAPQEPPESVRPSAPPAELEVQASECVVCLEREAQMIFLNCGHVCCCQQCCQPLRTCPLCRQDIAQRLRIYHSS
For B1, the binding entry is reported as “binds”.
